Results are given in words; binding and its absence hold for the method and conditions named. Binding seen in cells or lysates may run through a third protein. Some binding calls cover weakened binding; strength is not graded here.
Target: Prmt1 (endogenous, mouse hippocampus) (mouse (endogenous in hippocampus)) (UniProt Q9JIF0)
Assay: co-IP; lysates from mouse hippocampus immunoprecipitated with anti-Prmt1 antibody, immunoblotted with anti-KCNQ2 or anti-Prmt1 antibody

Chains of the proteins cited; added tags and fusions are not shown.
UniProt Q9JIF0: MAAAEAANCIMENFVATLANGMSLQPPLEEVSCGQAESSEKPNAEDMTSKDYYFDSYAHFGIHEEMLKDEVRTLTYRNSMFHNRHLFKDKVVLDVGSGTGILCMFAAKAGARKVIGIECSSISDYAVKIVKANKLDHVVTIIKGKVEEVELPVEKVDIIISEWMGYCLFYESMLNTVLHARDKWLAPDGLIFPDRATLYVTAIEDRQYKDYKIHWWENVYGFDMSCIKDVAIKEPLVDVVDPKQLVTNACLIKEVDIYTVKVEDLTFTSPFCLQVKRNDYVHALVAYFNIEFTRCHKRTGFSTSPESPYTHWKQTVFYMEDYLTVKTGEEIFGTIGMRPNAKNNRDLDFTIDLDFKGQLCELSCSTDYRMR
UniProt Q9Z351: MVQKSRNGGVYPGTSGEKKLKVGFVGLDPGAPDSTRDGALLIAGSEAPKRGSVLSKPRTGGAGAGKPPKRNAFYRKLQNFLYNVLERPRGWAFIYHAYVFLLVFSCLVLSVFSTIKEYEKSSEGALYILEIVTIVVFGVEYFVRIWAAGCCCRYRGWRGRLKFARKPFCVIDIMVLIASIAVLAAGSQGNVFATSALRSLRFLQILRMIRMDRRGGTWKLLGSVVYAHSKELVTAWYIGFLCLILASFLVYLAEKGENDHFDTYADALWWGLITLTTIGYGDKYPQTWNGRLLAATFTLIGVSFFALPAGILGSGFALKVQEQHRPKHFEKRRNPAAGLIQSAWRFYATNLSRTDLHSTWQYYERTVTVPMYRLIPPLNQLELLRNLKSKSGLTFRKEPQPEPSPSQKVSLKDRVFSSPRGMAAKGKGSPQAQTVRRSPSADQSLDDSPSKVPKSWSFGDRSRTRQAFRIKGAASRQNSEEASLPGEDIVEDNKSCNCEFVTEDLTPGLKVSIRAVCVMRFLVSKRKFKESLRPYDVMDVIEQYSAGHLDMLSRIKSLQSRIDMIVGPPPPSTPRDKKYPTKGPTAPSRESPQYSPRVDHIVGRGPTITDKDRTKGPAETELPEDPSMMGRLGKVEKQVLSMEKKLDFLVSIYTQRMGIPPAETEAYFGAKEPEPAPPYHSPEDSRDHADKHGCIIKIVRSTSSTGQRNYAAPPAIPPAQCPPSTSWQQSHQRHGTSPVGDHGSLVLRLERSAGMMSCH

With “KCNQ2 (endogenous, mouse hippocampus) (from UniProt Q9Z351 1-759)” the binding was “binds”.

Reference: paper PMC4996652
